Measured values published in paper PMC8628696, “Stable DNA Aptamer–Metal–Organic Framework as Horseradish Peroxidase Mimic for Ultra-Sensitive Detection of Carcinoembryonic Antigen in Serum”.

Biological target: T1, carcinoembryonic antigen (CEA) (human) (UniProt P06731)
T1 sequence (looked up, limits assumed): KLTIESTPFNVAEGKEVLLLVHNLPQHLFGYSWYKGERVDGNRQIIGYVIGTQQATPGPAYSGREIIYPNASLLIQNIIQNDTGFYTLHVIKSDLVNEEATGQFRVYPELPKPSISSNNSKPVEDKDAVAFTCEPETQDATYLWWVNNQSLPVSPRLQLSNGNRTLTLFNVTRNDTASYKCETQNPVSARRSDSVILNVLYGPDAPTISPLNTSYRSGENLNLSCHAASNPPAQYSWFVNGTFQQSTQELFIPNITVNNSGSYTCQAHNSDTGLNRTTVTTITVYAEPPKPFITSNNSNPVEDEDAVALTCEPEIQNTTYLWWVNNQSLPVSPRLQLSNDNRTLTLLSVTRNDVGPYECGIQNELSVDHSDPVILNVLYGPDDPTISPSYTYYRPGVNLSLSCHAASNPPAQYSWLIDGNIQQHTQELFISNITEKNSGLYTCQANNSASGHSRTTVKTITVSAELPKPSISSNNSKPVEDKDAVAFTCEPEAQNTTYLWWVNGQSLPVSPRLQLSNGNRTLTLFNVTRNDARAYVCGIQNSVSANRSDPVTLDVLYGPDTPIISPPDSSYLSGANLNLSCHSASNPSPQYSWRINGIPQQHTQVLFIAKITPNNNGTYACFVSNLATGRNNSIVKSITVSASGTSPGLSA
Assay: colorimetric antibody-aptamer sandwich assay
Details: MOF-grafted single strand 25 ug/mL, CEA 20 ng/mL, lower signal than CEAapt-TDN-MOF; 5' phosphate; Colorimetric sandwich assay: TMB 2 mM, H2O2 0.2 M, detection time 20 min; binding buffer; commercial protein; single-stranded DNA

Sequence: TTTTTTTATACCAGCTTATTCAA [CEAapt strand J on PCN-222(Fe) MOF]
- binding result: binds more weakly

A weaker result is weaker than the reference pair of the same experiment. Where a protein sequence is shown, tags need not be part of it.
